According to ChEMBL document CHEMBL4316593 (Eur J Med Chem, 2019):
Further values from the same series stand in other lists.

How the values were obtained:
Type in all cases: cell-based
Details in all cases: U-87MG ATCC
[1] = Inhibition of RTK/PI3K/AKT/mTOR signaling in human U87 cells assessed as down regulation of LINC01647 gene expression at cytotoxic IC50 measured after 48 hrs relative to control
[2] = Inhibition of RTK/PI3K/AKT/mTOR signaling in human U87 cells assessed as down regulation of CYP1B1 gene expression at cytotoxic IC50 measured after 48 hrs relative to control
[3] = Inhibition of RTK/PI3K/AKT/mTOR signaling in human U87 cells assessed as down regulation of MEX3B gene expression at cytotoxic IC50 measured after 48 hrs relative to control
[4] = Inhibition of RTK/PI3K/AKT/mTOR signaling in human U87 cells assessed as down regulation of ITGA2 gene expression at cytotoxic IC50 measured after 48 hrs relative to control
[5] = Inhibition of RTK/PI3K/AKT/mTOR signaling in human U87 cells assessed as down regulation of CYLD gene expression at cytotoxic IC50 measured after 48 hrs relative to control
[6] = Inhibition of RTK/PI3K/AKT/mTOR signaling in human U87 cells assessed as down regulation of RAB30 gene expression at cytotoxic IC50 measured after 48 hrs relative to control
[7] = Inhibition of RTK/PI3K/AKT/mTOR signaling in human U87 cells assessed as down regulation of MID2 gene expression at cytotoxic IC50 measured after 48 hrs relative to control
[8] = Inhibition of RTK/PI3K/AKT/mTOR signaling in human U87 cells assessed as down regulation of HSP90AB1 gene expression at cytotoxic IC50 measured after 48 hrs relative to control
[9] = Inhibition of RTK/PI3K/AKT/mTOR signaling in human U87 cells assessed as down regulation of KLHL20 gene expression at cytotoxic IC50 measured after 48 hrs relative to control
[10] = Inhibition of RTK/PI3K/AKT/mTOR signaling in human U87 cells assessed as down regulation of MDM1 gene expression at cytotoxic IC50 measured after 48 hrs relative to control
[11] = Inhibition of RTK/PI3K/AKT/mTOR signaling in human U87 cells assessed as down regulation of CAPN2 gene expression at cytotoxic IC50 measured after 48 hrs relative to control
[12] = Inhibition of RTK/PI3K/AKT/mTOR signaling in human U87 cells assessed as down regulation of PEX26 gene expression at cytotoxic IC50 measured after 48 hrs relative to control
[13] = Inhibition of RTK/PI3K/AKT/mTOR signaling in human U87 cells assessed as down regulation of MBD4 gene expression at cytotoxic IC50 measured after 48 hrs relative to control
[14] = Inhibition of RTK/PI3K/AKT/mTOR signaling in human U87 cells assessed as down regulation of FBXL5 gene expression at cytotoxic IC50 measured after 48 hrs relative to control
[15] = Inhibition of RTK/PI3K/AKT/mTOR signaling in human U87 cells assessed as down regulation of STK4 gene expression at cytotoxic IC50 measured after 48 hrs relative to control
[16] = Inhibition of RTK/PI3K/AKT/mTOR signaling in human U87 cells assessed as down regulation of CPT1A gene expression at cytotoxic IC50 measured after 48 hrs relative to control
[17] = Inhibition of RTK/PI3K/AKT/mTOR signaling in human U87 cells assessed as down regulation of IFIT5 gene expression at cytotoxic IC50 measured after 48 hrs relative to control
[18] = Inhibition of RTK/PI3K/AKT/mTOR signaling in human U87 cells assessed as down regulation of UBR2 gene expression at cytotoxic IC50 measured after 48 hrs relative to control
[19] = Inhibition of RTK/PI3K/AKT/mTOR signaling in human U87 cells assessed as down regulation of ACTR1A gene expression at cytotoxic IC50 measured after 48 hrs relative to control
[20] = Inhibition of RTK/PI3K/AKT/mTOR signaling in human U87 cells assessed as down regulation of NCOA3 gene expression at cytotoxic IC50 measured after 48 hrs relative to control
[21] = Inhibition of RTK/PI3K/AKT/mTOR signaling in human U87 cells assessed as up regulation of ALPK2 gene expression at cytotoxic IC50 measured after 48 hrs relative to control
[22] = Inhibition of RTK/PI3K/AKT/mTOR signaling in human U87 cells assessed as up regulation of KDELR3 gene expression at cytotoxic IC50 measured after 48 hrs relative to control
[23] = Inhibition of RTK/PI3K/AKT/mTOR signaling in human U87 cells assessed as up regulation of CC2D2A gene expression at cytotoxic IC50 measured after 48 hrs relative to control
[24] = Inhibition of RTK/PI3K/AKT/mTOR signaling in human U87 cells assessed as up regulation of LRFN1 gene expression at cytotoxic IC50 measured after 48 hrs relative to control
[25] = Inhibition of RTK/PI3K/AKT/mTOR signaling in human U87 cells assessed as up regulation of LTBP3 gene expression at cytotoxic IC50 measured after 48 hrs relative to control
[26] = Inhibition of RTK/PI3K/AKT/mTOR signaling in human U87 cells assessed as up regulation of nudE neurodevelopment protein 1 gene expression at cytotoxic IC50 measured after 48 hrs relative to control
[27] = Inhibition of RTK/PI3K/AKT/mTOR signaling in human U87 cells assessed as up regulation of ubiquitin conjugating enzyme E2 E1 gene expression at cytotoxic IC50 measured after 48 hrs relative to control
[28] = Inhibition of RTK/PI3K/AKT/mTOR signaling in human U87 cells assessed as up regulation of mitogen-activated protein kinase 12 gene expression at cytotoxic IC50 measured after 48 hrs relative to control
[29] = Inhibition of RTK/PI3K/AKT/mTOR signaling in human U87 cells assessed as up regulation of PFKM gene expression at cytotoxic IC50 measured after 48 hrs relative to control
[30] = Inhibition of RTK/PI3K/AKT/mTOR signaling in human U87 cells assessed as up regulation of RHBDD1 gene expression at cytotoxic IC50 measured after 48 hrs relative to control
[31] = Inhibition of RTK/PI3K/AKT/mTOR signaling in human U87 cells assessed as up regulation of C6orf48 gene expression at cytotoxic IC50 measured after 48 hrs relative to control
[32] = Inhibition of RTK/PI3K/AKT/mTOR signaling in human U87 cells assessed as up regulation of HSPG2 gene expression at cytotoxic IC50 measured after 48 hrs relative to control
[33] = Inhibition of RTK/PI3K/AKT/mTOR signaling in human U87 cells assessed as up regulation of IVD gene expression at cytotoxic IC50 measured after 48 hrs relative to control

CC(=O)C(=NNc1ccccc1C#N)C(C)=O showed a log2FC [1] of -6.64, a log2FC [2] of -3.42 and a log2FC [3] of -1.57. For the same compound, the log2FC [4] was -1.34, the log2FC [5] was -1.26 and the log2FC [6] was -1.21. The log2FC [7] was -1.12, the log2FC [8] was -0.925 and the log2FC [9] was -1.03. The log2FC [10] was -1.01, the log2FC [11] was -0.913 and the log2FC [12] was -0.847. It also gave a log2FC [13] of -0.839, a log2FC [14] of -0.784 and a log2FC [15] of -0.781. For the same compound, the log2FC [16] was -0.777, the log2FC [17] was -0.77 and the log2FC [18] was -0.567. For the same compound, the log2FC [19] was -0.534, the log2FC [20] was -0.461 and the log2FC [21] was 2.42. The log2FC [22] was 2.04, the log2FC [23] was 1.92 and the log2FC [24] was 1.72. The log2FC [25] was 1.58, the log2FC [26] was 0.909 and the log2FC [27] was 0.807. The log2FC [28] was 0.664, the log2FC [29] was 0.609 and the log2FC [30] was 0.606. The log2FC [31] was 0.605, the log2FC [32] was 0.601 and the log2FC [33] was 0.581.
